# In PubChem BioAssay AID652054 (National Center for Advancing Translational Sciences (NCATS), 2013):
# The chains behind the UniProt entries cited, without tags or fusion partners.
# UniProt P35462, whole entry, looked up: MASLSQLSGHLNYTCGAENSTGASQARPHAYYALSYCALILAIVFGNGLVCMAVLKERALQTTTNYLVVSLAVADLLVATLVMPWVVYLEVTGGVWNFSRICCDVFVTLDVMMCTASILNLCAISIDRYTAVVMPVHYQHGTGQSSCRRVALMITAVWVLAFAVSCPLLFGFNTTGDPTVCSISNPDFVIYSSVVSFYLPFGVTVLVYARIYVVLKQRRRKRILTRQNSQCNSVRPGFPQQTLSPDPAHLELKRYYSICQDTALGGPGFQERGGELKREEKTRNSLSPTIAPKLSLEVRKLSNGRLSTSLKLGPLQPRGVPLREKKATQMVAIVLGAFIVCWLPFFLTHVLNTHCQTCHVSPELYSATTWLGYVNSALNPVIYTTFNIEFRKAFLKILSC
# Out of some 360,000 compounds screened, about 9,100 (2.5%) were called active. Inconclusive means that the source gave no clear call. Such entries were picked first, then a sample of the others. Rule as the data show it: active = max response below about -50%; inconclusive = no clear call, values can overlap the other calls; inactive = above that.
# Target: D(3) dopamine receptor (Homo sapiens) (UniProt P35462)
# Experiment: qHTS of D3 Dopamine Receptor Antagonist: qHTS
# Conditions: D3R cells, DiscoveRx beta-arrestin luminescence, antagonist mode; stronger effect = lower value
# Procedure, shortened: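 Cells expressing the human receptor were seeded at 1500 cells/well, incubated overnight at 37 degrees C in 5% CO2, then exposed to library compounds with dopamine controls for 90 minutes at 37 degrees C before luminescent detection.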
# % is scaled to controls: 0 for no effect and ±100 for the full control effect.
row,Structure (SMILES),"max response, negative = inhibition"
1,CCC1(C)N=C(N)Nc2nc3cc(C)c(C)cc3n21 (configuration not stated),inactive: 20.5%
2,CCOC(=O)c1c(C)oc2c1c(C=NCCC(=O)O)c(O)c1ccccc12,inconclusive: -35.5%
3,COC(=O)c1cccc(C#CC(NP(=O)(c2ccccc2)c2ccccc2)c2ccccc2)c1 (configuration not stated),inactive: -16.2%
4,CCN(CC)S(=O)(=O)c1ccc(N2CCCC2)c(NC(=O)C2=COCCO2)c1,inactive: 2.32%
5,O=C(CCCn1c(=S)[nH]c2cc3c(cc2c1=O)OCO3)N1CCN(c2ccc(F)cc2)CC1,inactive: 51.3%
6,COc1cc(Br)c(CN2C(=O)NC3(CCCCCC3)C2=O)cc1OC,inactive: -13.6%
7,S=c1[nH]nc2nnc3ccccc3n12,inconclusive: -38.6%
8,CC(=O)c1cccc(-c2ccnc3c2CC(C(=O)Nc2ccc(Cl)cc2)O3)c1 (configuration not stated),active: -60.9%
9,COc1cc(NC(=O)NCCN2CCN(c3ccc(Cl)cc3)CC2)ccc1C,inconclusive: -31.2%
10,COc1ccc(Cl)cc1NS(=O)(=O)c1cccc(C(=O)NCC(C)(C)N2CCOCC2)c1,inconclusive: -38.7%
11,CCOC(=O)c1ccc(NC(=S)N(CCCN2CCCC(C)C2)Cc2ccco2)cc1 (configuration not stated),inconclusive: -37.8%
12,COc1c(O)ccc2c1CN1CCc3cc4c(cc3C1C2)OCO4 (configuration not stated),active: -123%
13,Cc1ccc(-c2nnn(CC(=O)N(c3ccccc3F)C(C(=O)NC3CCCC3)c3ccncc3)n2)o1 (configuration not stated),inconclusive: -31.5%
14,O=c1c(C(c2c(O)nc3n(c2=O)CCS3)c2cccc3ccccc23)c(O)nc2n1CCS2,inactive: -15.2%
15,Cc1cc(C(C)(C)C)ccc1OCCCCN1CCCC1,inactive: -10.7%
16,CCc1nc2c(OCc3cc(Cl)cc(Cl)c3)cccn2c1N(C)C(=O)CC(C)C,active: -65.5%
17,CC(=O)N1CCN(S(=O)(=O)c2cccc(C(=O)OCC(=O)N(CCC#N)c3ccc(F)cc3)c2)CC1,inactive: -2.06%
18,COc1ccccc1-n1c(=O)[nH]c2c(C(N)=O)nc(CC(C)C)nc21,inconclusive: -34%
19,CCNC1=C(Cl)C(=O)c2ccccc2C1=O,inconclusive: -32.7%

row,Structure (SMILES),"max response, negative = inhibition"
1,NC(=O)CCN1CCC(c2nc3ccccc3s2)CC1,inconclusive: -38.7%
2,Cc1nnc2c(SC(C)C)nc3ccccc3n12,inconclusive: -46.6%
3,CN(CC(=O)Nc1ccc(F)cc1)C(=O)c1ccc2ccccc2n1,inconclusive: -32.5%
4,CC1CCCCC1NCC(=O)NCc1ccc(F)cc1 (configuration not stated),inconclusive: -35.4%
5,COCCNC(=O)C1CCN(Cc2cccc(OCc3ccccc3)c2)CC1,inactive: -11.7%
6,CC(=O)NS(=O)(=O)c1ccc(Nc2ccc([N+](=O)[O-])c3nonc23)cc1,active: -54.1%
7,COC(=O)C1=C(C)NC(C)=C([N+](=O)[O-])C1c1ccccc1C(F)(F)F (configuration not stated),inconclusive: -43.1%
8,CC1=C(C(=O)Nc2ccccc2C)C(c2ccc(C)o2)C2=C(CCCC2=O)N1 (configuration not stated),inconclusive: -42.5%
9,O=C(NCC(c1ccco1)N1CCc2ccccc21)C(=O)Nc1ccc(F)cc1F (configuration not stated),inactive: -26.1%
10,Cc1sc(NC(=O)C2CCCC2)c(C#N)c1C,inconclusive: -30.6%
11,CCN1CCCC1CNC(=O)c1cc2c(=O)n(C)c3ccccc3c2n1C (configuration not stated),inconclusive: -46.7%
12,CCCCCC(=O)Nc1ccc(N2CCN(CC)CC2)c(Cl)c1,inconclusive: -45.5%
13,CCN(Cc1ccncc1)Cc1nc(-c2ccc(C(=O)OC)cc2)no1,inactive: 0.264%
14,O=S(=O)(Nc1nc2ccccc2nc1NCCN1CCOCC1)c1cccc(Cl)c1,inconclusive: -41.3%
15,O=C(Cn1cnc2cc([N+](=O)[O-])ccc2c1=O)Nc1ccc(Br)cc1,inconclusive: -35.1%
16,O=C(N/N=C/c1c(O)ccc2ccccc12)Nc1ccccc1,active: -57.2%
17,O=C(O)CSCC(=O)N(c1ccccc1)c1ccccc1,inactive: 6.2%
18,Cc1ccc(C(=O)CCS(=O)(=O)c2ccc(Cl)cc2)cc1,inconclusive: -42.3%
19,c1ccc(-c2nc(NCCCN3CCOCC3)c3ccccc3n2)cc1,inactive: 19%

# By substructure: the entries above with a nitro group on carbon
row,Structure (SMILES),"max response, negative = inhibition"
6,CC(=O)NS(=O)(=O)c1ccc(Nc2ccc([N+](=O)[O-])c3nonc23)cc1,active: -54.1%
7,COC(=O)C1=C(C)NC(C)=C([N+](=O)[O-])C1c1ccccc1C(F)(F)F (configuration not stated),inconclusive: -43.1%
15,O=C(Cn1cnc2cc([N+](=O)[O-])ccc2c1=O)Nc1ccc(Br)cc1,inconclusive: -35.1%

# (more compounds)

row,Structure (SMILES),"max response, negative = inhibition"
1,Cc1ccc(S(=O)(=O)c2ccc([N+](=O)[O-])o2)cc1,active: -111%
2,S=c1nc(-c2ccccc2Cl)[nH][nH]1,inconclusive: -44.7%
3,N#Cc1c(-c2cccnc2)c2c([nH]c1=O)-c1ccccc1OC2,inactive: 16.2%
4,CN(Cc1ccccc1)C(=O)c1ccc(NC(=O)Cc2ccc(NC(=O)C3CCN(S(=O)(=O)c4cccc([N+](=O)[O-])c4)CC3)cc2)cc1,inconclusive: -45.8%
5,COc1ccc(CCNC(=O)c2cc(S(=O)(=O)N3CCCCC3)ccc2Cl)cc1,inactive: -7.77%
6,C[C@@H]1CN([C@@H](C)CO)C(=O)Cc2cc(NC(=O)Nc3cccc4ccccc34)ccc2O[C@@H]1CN(C)Cc1ccc(C(F)(F)F)cc1,active: -61%
7,Cc1cc2c(cc1C)C(=O)C(=O)N2,inconclusive: -38.4%
8,COc1cccc(S(=O)(=O)NCc2ccc(C(=O)N3CCN(c4ccccc4)CC3)cc2)c1,inactive: 10.5%
9,Cc1cc(CN(C)C(=O)c2cc(COc3ccc(F)cc3Cl)on2)n[nH]1,inconclusive: -35%
10,COc1cc(Cl)ccc1S(=O)(=O)n1nc(C)cc1C,inconclusive: -32.5%
11,CCCCS(=O)(=O)N1CCCC(C(=O)Oc2ccccc2)C1 (configuration not stated),inactive: 11.1%
12,Cc1ccc(NC(=S)NC2CC3CCCC(C2)N3Cc2cccs2)cc1 (configuration not stated),active: -70.6%
13,C=CCNCCOc1ccccc1-c1ccccc1,active: -63.8%
14,O=C1CSc2ccccc2N1,inconclusive: -33.4%
15,CC(C)(C)[C@@H]1C=C(C(=O)O)O[C@H](OCc2ccc(CO)cc2)C1,inconclusive: -43.4%
16,O=c1cc(CCl)nc(Cc2c(Cl)cccc2Cl)[nH]1,inactive: 3.54%
17,O=C1c2ccccc2N2C(=O)c3ccccc3C2N1O (configuration not stated),inconclusive: -33.7%
18,CN1CC(=O)N(CC(=O)Nc2cccc(S(=O)(=O)N3CCOCC3)c2)C1=O,inactive: 2.47%
19,CCOc1ccc(OCC)c(S(=O)(=O)NCc2ccc3c(c2)OCO3)c1,inconclusive: -31.7%
